# Repeats are few or missing, and single values can be far off.
# Chains of the proteins cited; added tags and fusions are not shown. Lines headed by an entry give the natural chain unless they say otherwise; changes in a name come on top.
# UniProt Q96IX5: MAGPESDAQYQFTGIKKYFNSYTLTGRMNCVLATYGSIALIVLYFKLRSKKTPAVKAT
# UniProt Q9UNK0: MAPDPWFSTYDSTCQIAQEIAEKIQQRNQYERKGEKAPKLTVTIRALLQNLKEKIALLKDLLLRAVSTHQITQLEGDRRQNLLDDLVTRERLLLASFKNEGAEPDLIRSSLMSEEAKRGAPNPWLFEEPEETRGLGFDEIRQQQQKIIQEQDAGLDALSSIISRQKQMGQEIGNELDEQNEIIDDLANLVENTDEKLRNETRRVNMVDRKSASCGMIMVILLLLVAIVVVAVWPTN
# UniProt Q68D10: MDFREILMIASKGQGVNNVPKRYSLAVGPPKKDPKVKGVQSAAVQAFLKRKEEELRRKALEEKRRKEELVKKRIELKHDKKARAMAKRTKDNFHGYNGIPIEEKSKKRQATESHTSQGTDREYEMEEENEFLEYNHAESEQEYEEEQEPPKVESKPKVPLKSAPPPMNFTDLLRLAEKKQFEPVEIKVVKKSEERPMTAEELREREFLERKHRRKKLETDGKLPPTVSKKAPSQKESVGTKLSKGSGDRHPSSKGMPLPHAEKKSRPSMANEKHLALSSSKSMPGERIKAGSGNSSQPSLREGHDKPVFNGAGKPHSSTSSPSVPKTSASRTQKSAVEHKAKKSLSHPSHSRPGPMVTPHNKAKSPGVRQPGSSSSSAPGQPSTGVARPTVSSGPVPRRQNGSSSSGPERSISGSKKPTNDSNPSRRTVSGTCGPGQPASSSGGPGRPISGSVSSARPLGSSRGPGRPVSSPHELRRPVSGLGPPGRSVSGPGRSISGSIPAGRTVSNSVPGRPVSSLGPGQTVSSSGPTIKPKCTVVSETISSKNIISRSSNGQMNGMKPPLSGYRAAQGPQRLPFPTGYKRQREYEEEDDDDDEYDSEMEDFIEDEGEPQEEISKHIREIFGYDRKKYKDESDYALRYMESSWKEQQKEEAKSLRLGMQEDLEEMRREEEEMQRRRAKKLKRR
# UniProt Q6PFW1: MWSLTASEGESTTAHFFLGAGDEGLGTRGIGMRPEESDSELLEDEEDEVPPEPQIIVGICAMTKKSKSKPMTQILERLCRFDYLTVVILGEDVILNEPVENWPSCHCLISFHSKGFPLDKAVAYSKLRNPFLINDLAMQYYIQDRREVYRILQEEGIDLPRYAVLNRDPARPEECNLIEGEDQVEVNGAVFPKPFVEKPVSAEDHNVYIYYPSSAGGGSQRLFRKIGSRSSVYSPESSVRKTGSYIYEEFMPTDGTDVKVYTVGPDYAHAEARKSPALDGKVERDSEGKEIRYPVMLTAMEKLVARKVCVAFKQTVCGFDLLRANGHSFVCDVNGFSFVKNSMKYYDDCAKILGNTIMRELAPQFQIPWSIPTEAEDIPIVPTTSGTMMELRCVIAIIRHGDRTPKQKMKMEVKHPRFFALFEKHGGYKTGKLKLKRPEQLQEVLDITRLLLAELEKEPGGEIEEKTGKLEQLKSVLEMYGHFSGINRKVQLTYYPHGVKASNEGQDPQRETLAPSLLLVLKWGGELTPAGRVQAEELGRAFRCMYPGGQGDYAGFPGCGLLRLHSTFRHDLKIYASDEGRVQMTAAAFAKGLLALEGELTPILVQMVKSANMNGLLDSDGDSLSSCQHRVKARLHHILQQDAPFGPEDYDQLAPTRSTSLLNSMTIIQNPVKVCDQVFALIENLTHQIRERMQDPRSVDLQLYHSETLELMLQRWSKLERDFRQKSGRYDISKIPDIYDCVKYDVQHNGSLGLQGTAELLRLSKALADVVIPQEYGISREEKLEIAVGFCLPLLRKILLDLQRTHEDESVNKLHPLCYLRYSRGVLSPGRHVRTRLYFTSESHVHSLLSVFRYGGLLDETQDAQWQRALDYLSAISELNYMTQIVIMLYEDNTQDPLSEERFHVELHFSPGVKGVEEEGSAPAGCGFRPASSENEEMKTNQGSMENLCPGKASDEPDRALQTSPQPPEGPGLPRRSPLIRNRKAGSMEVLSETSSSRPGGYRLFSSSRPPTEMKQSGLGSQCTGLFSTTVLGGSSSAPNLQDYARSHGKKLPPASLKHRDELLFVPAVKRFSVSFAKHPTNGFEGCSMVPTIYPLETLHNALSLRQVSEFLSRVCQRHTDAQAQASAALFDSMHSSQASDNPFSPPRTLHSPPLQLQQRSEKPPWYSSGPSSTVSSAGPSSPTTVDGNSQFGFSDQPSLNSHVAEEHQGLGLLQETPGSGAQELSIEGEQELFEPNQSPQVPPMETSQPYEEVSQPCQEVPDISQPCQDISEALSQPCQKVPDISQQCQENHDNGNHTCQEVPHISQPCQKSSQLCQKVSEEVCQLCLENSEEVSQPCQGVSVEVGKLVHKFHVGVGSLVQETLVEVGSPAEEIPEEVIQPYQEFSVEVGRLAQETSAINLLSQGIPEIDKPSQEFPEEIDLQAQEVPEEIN
# UniProt Q96CT7: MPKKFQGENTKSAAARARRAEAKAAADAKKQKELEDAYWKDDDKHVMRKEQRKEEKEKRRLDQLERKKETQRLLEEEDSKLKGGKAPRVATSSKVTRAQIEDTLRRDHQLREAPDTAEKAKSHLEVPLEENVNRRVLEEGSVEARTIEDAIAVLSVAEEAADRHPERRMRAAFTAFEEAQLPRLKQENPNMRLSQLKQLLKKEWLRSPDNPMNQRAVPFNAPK
# UniProt Q8N954: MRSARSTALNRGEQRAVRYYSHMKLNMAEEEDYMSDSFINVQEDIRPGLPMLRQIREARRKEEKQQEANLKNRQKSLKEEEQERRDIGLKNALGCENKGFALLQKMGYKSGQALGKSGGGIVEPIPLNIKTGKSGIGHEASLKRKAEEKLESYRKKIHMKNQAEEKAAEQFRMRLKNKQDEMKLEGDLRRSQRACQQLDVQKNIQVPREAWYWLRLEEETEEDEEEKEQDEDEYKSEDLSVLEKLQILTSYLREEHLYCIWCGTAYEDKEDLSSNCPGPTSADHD
# UniProt P11766: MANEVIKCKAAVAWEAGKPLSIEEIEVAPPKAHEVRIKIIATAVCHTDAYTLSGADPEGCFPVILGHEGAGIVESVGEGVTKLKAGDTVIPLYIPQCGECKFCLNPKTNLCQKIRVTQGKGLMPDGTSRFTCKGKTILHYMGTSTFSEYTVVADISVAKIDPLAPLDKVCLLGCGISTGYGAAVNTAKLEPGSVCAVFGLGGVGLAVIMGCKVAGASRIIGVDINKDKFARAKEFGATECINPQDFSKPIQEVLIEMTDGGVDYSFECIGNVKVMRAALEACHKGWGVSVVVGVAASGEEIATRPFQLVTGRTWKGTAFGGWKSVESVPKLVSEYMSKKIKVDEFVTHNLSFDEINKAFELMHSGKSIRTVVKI
# UniProt Q12824, whole entry: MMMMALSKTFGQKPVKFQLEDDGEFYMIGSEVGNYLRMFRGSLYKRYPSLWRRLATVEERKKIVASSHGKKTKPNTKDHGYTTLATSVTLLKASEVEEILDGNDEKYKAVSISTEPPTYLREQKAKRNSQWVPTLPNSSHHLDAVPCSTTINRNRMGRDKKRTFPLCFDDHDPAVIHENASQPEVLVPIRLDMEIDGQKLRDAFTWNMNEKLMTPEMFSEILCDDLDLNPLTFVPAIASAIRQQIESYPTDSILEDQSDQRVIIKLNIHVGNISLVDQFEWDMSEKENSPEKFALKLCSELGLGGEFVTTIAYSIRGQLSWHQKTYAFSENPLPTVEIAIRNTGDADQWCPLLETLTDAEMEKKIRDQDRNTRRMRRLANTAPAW
# UniProt Q96LR5: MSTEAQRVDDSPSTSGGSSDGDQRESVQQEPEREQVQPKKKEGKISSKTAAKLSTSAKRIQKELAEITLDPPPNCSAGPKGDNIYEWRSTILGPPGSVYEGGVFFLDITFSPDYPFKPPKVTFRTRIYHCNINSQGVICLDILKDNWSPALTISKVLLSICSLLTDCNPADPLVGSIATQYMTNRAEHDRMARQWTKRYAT
# UniProt Q9BQ52: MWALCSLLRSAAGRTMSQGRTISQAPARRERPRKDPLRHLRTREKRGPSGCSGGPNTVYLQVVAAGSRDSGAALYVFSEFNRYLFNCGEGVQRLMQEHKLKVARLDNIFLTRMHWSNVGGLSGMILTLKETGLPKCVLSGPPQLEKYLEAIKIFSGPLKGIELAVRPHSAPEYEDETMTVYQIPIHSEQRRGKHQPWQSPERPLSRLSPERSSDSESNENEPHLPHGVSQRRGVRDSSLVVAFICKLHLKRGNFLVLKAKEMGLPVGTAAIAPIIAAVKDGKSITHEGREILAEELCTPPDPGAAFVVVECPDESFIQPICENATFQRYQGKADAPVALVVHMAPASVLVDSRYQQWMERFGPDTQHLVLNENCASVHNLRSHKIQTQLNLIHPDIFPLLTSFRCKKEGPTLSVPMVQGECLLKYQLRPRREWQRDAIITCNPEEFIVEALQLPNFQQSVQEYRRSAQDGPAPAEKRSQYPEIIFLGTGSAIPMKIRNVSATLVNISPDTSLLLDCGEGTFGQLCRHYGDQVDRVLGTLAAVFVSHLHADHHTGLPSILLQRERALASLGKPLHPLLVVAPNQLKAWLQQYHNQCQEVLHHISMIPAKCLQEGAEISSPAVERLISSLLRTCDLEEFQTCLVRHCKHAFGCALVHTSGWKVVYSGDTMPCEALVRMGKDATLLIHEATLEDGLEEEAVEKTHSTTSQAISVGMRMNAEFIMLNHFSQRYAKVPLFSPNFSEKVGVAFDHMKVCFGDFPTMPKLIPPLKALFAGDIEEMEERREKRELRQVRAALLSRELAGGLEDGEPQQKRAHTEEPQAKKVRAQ
# UniProt Q9NQR4: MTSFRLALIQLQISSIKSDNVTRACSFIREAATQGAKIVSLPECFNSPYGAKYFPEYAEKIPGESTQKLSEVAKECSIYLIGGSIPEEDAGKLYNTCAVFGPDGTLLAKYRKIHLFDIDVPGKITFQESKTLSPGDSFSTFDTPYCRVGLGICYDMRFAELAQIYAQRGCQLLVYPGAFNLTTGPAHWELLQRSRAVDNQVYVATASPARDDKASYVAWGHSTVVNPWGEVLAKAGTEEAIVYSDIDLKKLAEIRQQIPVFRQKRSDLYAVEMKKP
# UniProt Q96RQ3: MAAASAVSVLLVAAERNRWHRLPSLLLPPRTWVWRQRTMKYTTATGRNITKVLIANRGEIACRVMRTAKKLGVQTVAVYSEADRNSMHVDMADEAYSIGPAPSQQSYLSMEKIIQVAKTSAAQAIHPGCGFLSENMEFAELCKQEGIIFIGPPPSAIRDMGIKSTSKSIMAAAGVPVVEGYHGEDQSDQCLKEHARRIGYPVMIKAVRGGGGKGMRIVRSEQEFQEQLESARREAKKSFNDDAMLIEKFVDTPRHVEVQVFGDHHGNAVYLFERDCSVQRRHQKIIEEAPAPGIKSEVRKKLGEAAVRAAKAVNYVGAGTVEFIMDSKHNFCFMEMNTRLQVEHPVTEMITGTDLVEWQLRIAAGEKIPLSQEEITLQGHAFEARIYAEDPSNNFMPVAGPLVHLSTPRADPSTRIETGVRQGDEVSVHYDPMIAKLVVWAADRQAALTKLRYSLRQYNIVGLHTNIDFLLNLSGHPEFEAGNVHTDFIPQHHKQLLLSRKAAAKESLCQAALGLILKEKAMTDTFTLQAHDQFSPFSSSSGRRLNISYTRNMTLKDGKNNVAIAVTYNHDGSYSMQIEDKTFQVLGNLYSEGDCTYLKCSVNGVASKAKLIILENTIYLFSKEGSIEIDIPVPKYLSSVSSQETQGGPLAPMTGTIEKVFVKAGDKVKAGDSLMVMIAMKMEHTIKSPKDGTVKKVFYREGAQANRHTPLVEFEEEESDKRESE
# UniProt P30260, whole entry: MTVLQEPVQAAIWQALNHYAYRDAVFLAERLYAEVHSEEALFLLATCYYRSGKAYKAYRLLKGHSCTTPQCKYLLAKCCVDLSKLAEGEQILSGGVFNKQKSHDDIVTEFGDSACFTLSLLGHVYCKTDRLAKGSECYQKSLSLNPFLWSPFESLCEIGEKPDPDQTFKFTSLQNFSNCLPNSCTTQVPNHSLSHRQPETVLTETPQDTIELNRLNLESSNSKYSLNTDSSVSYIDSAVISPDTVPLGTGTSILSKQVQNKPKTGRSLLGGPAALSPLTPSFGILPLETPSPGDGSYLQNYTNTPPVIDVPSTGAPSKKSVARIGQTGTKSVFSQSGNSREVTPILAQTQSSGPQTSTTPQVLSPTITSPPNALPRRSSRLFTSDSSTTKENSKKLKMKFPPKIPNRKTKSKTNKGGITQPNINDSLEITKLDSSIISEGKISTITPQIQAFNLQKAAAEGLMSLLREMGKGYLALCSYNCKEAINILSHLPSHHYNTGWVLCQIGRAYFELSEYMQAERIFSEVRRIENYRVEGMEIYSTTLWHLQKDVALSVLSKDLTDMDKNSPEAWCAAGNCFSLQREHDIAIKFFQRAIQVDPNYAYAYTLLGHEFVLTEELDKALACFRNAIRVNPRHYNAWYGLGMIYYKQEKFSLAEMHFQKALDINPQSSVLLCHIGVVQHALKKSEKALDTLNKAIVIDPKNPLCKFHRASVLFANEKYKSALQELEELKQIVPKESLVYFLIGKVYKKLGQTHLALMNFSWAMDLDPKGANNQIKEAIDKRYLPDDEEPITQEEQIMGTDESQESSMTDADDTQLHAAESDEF
# UniProt Q96I36: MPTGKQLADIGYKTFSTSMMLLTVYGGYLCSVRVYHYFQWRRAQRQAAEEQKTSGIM
# Compound: [O-][N+](C(C1=C(C(O)=C2)NC(C(C=C3)=CC=C3Cl)C4C1C=CC4)=C2Cl)=O
# Assay: melting temperature shift (compound 7 minus DMSO); higher = compound stabilises the protein
# Conditions: 10 µM
# Protocol: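 Thermal proteome profiling (TMT mass spectrometry) in intact DAOY medulloblastoma cells or DAOY lysates treated with 10 µM compound 7 or DMSO, heated at 10 temperatures from 40.5 to 73.8 °C for 3 min. Melting curves were fitted with the Bioconductor TPP package, and the melting point difference between compound and vehicle is reported per protein (single curve per condition).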
# [1] = system: DAOY cell lysate, treatment time: 20 min, 4 °C
# [2] = system: intact DAOY cells, treatment time: 90 min, 37 °C
target,measurement,setting,value
TMEM126A (UniProt Q9H061),melting temperature shift,[1],0.94 °C
same,melting temperature shift,[2],-0.562 °C
AP4M1 (UniProt O00189),melting temperature shift,[1],-0.46 °C
POLR2E (UniProt P19388),melting temperature shift,[1],-0.11 °C
same,melting temperature shift,[2],0.638 °C
BCLAF1 (UniProt Q9NYF8),melting temperature shift,[1],0.559 °C
same,melting temperature shift,[2],2.61 °C
TYW1 (UniProt Q9NV66),melting temperature shift,[1],1.32 °C
UniProt Q8TEU7,melting temperature shift,[1],-0.678 °C
same,melting temperature shift,[2],-2.59 °C
ARHGDIA (UniProt P52565),melting temperature shift,[1],-1.19 °C
same,melting temperature shift,[2],0.404 °C
USMG5 (UniProt Q96IX5),melting temperature shift,[1],3.16 °C
AGAP1 (UniProt Q9UPQ3),melting temperature shift,[2],2.31 °C
UniProt Q9NWT8,melting temperature shift,[1],2.19 °C
same,melting temperature shift,[2],-0.942 °C
BCAP29 (UniProt Q9UHQ4),melting temperature shift,[1],2.67 °C
same,melting temperature shift,[2],0.195 °C
DIS3 (UniProt Q9Y2L1),melting temperature shift,[1],-0.747 °C
same,melting temperature shift,[2],-0.455 °C
KIAA1468 (UniProt Q9P260),melting temperature shift,[1],-0.579 °C
same,melting temperature shift,[2],-0.542 °C
UniProt Q5TGJ6,melting temperature shift,[1],-1.26 °C
UniProt Q9BRJ7,melting temperature shift,[1],0.301 °C
same,melting temperature shift,[2],1.53 °C
PRCP (UniProt P42785),melting temperature shift,[1],-0.333 °C
same,melting temperature shift,[2],0.838 °C
UniProt O60260,melting temperature shift,[2],0.414 °C
TBC1D5 (UniProt Q92609),melting temperature shift,[1],-0.786 °C
same,melting temperature shift,[2],-0.487 °C
UniProt Q9UMX2,melting temperature shift,[2],-1.33 °C
STX8 (UniProt Q9UNK0),melting temperature shift,[1],-0.897 °C
PRKAG1 (UniProt P54619),melting temperature shift,[1],-0.0805 °C
same,melting temperature shift,[2],-0.886 °C
UniProt Q68D10,melting temperature shift,[1],-0.365 °C
RPL13A (UniProt P40429),melting temperature shift,[1],0.367 °C
same,melting temperature shift,[2],-0.529 °C
ARL6IP5 (UniProt O75915),melting temperature shift,[1],2.74 °C
same,melting temperature shift,[2],-3.3 °C
PPIP5K1 (UniProt Q6PFW1),melting temperature shift,[1],-2.02 °C
UniProt Q9Y6K8,melting temperature shift,[1],-0.317 °C
UniProt Q8NHP1,melting temperature shift,[2],-0.0443 °C
UniProt Q02539,melting temperature shift,[2],-0.522 °C
CLTC (UniProt Q00610),melting temperature shift,[2],0.394 °C
CCDC124 (UniProt Q96CT7),melting temperature shift,[1],-2.35 °C
POLR1C (UniProt O15160),melting temperature shift,[1],1.12 °C
same,melting temperature shift,[2],1.3 °C
CCPG1 (UniProt Q9ULG6),melting temperature shift,[2],-0.324 °C
LYN (UniProt P07948),melting temperature shift,[1],1.02 °C
same,melting temperature shift,[2],-0.312 °C
LMNB1 (UniProt P20700),melting temperature shift,[2],1.64 °C
UniProt P00918,melting temperature shift,[1],-0.546 °C
UniProt Q96J66,melting temperature shift,[2],-0.617 °C
GPATCH11 (UniProt Q8N954),melting temperature shift,[1],-1.16 °C
same,melting temperature shift,[2],0.853 °C
ADH5 (UniProt P11766),melting temperature shift,[1],-0.456 °C
same,melting temperature shift,[2],2.44 °C
SMARCB1 (UniProt Q12824),melting temperature shift,[1],-0.62 °C
same,melting temperature shift,[2],0.169 °C
NGRN (UniProt Q9NPE2),melting temperature shift,[1],-1.64 °C
SIRT6 (UniProt Q8N6T7),melting temperature shift,[1],-0.525 °C
same,melting temperature shift,[2],0.601 °C
MRPS11 (UniProt P82912),melting temperature shift,[1],0.728 °C
same,melting temperature shift,[2],0.754 °C
UBE2E2 (UniProt Q96LR5),melting temperature shift,[1],-1.13 °C
same,melting temperature shift,[2],-1.13 °C
IFIT3 (UniProt O14879),melting temperature shift,[1],0.451 °C
same,melting temperature shift,[2],1.77 °C
AFG3L2 (UniProt Q9Y4W6),melting temperature shift,[1],1.57 °C
same,melting temperature shift,[2],0.0504 °C
UniProt Q15528,melting temperature shift,[1],0.231 °C
TOMM22 (UniProt Q9NS69),melting temperature shift,[1],2.82 °C
same,melting temperature shift,[2],-1.39 °C
ELAC2 (UniProt Q9BQ52),melting temperature shift,[1],0.374 °C
same,melting temperature shift,[2],-0.353 °C
UniProt Q8N819,melting temperature shift,[2],0.838 °C
CTSA (UniProt P10619),melting temperature shift,[1],0.115 °C
same,melting temperature shift,[2],-2.27 °C
INPP5B (UniProt P32019),melting temperature shift,[2],2.84 °C
UniProt P09016,melting temperature shift,[1],4.36 °C
NIT2 (UniProt Q9NQR4),melting temperature shift,[1],-0.345 °C
same,melting temperature shift,[2],0.86 °C
KNSTRN (UniProt Q9Y448),melting temperature shift,[1],-1.93 °C
same,melting temperature shift,[2],-0.252 °C
MCCC1 (UniProt Q96RQ3),melting temperature shift,[1],-3.37 °C
same,melting temperature shift,[2],0.751 °C
UniProt O75132,melting temperature shift,[1],2.14 °C
CDC27 (UniProt P30260),melting temperature shift,[1],-0.101 °C
same,melting temperature shift,[2],0.364 °C
UniProt Q96I36,melting temperature shift,[1],0.929 °C
STX12 (UniProt Q86Y82),melting temperature shift,[1],1.85 °C
CDC37L1 (UniProt Q7L3B6),melting temperature shift,[1],-1.58 °C
same,melting temperature shift,[2],0.0339 °C
UniProt P58215,melting temperature shift,[1],0.73 °C
same,melting temperature shift,[2],0.255 °C

# A run of entries from the list above, as a working copy:
target,measurement,setting,value
UBE2E2 (UniProt Q96LR5),melting temperature shift,[1],-1.13 °C
same,melting temperature shift,[2],-1.13 °C
IFIT3 (UniProt O14879),melting temperature shift,[1],0.451 °C
same,melting temperature shift,[2],1.77 °C

# From the supplement of paper PMC10060354, “Discovery of a small molecule ligand of FRS2 that inhibits invasion and tumor growth” (Cellular Oncology, 2022)
